Data reported in patent US12699083B2, “Device for continuous measurement of cardiac activity” (The Hospital for Sick Children, priority 2018, dated 2026).

Assays:
hiPSC-CM monolayers = experiment: Drug test on hiPSC-CM monolayers cultured on CNT-PDMS device arrays (contractile stress, beating rate, beating rhythm from CNT sensor resistance)
[1] = tested on: Neonatal rat cardiomyocytes; conditions: 5 nM to 50 nM; cited from earlier work
cardiomyocytes = conditions: 1-30 nM, patch clamp; cited from earlier work

Cc1cccc(CCN2CCC(C(=O)c3ccc(NS(C)(=O)=O)cc3)CC2)n1 [E-4031]
concentration that caused arrhythmic beating of hiPS-CMs (cardiotoxicity) (hiPSC-CM monolayers): > 600 nM | beating rate pattern (arrhythmic beating) (hiPSC-CM monolayers; 0.10 μM and 0.20 μM E-4031): two spikes of beating rates | arrhythmic beating [1]: did not occur | duration of field potential (cardiomyocytes): prolonged
